Experiment [1] deals with GFP-tagged coiled-coil domain of the C-terminus part of SH3KBP1 (human). The experiment can be described thus: co-IP; GFP-tagged SH3KBP1 constructs expressed in C2C12 cells; GFP trap assay on cell extracts; blots with anti-ERP72, anti-Calnexin (endogenous proteins) and anti-GFP.
The target of experiment [2] is GFP-tagged SH3KBP1 C-terminal part (human). The experiment is described as above.

These are yes or no findings as the source states them, for the method shown. Binding seen in cells or lysates may run through a third protein. For some assays here: A result given as binding can be weak or reduced; the word gives no strength.

B1: Calnexin (protein, UniProt P35564 21-591)
chain: HDGHDDDAIDIEDDLDDVIEEVEDSKSKSDASTPPSPKVTYKAPVPTGEVYFADSFDRGSLSGWILSKAKKDDTDDEIAKYDGKWEVDEMKETKLPGDKGLVLMSRAKHHAISAKLNKPFLFDTKPLIVQYEVNFQNGIECGGAYVKLLSKTAELSLDQFHDKTPYTIMFGPDKCGEDYKLHFIFRHKNPKTGVYEEKHAKRPDADLKTYFTDKKTHLYTLILNPDNSFEILVDQSVVNSGNLLNDMTPPVNPSREIEDPEDRKPEDWDERPKIADPDAVKPDDWDEDAPSKIPDEEATKPEGWLDDEPEYIPDPDAEKPEDWDEDMDGEWEAPQIANPKCESAPGCGVWQRPMIDNPNYKGKWKPPMIDNPNYQGIWKPRKIPNPDFFEDLEPFKMTPFSAIGLELWSMTSDIFFDNFIISGDRRVVDDWANDGWGLKKAADGAAEPGVVLQMLEAAEERPWLWVVYILTVALPVFLVILFCCSGKKQSNAMEYKKTDAPQPDVKDEEGKEEEKNKRDEEEEEEKLEEKQKSDAEEDGVTGSQDEEDSKPKAEEDEILNRSPRNRKPRRE
Take B1: the results for the binding entry in experiment [1] and in experiment [2] were “no binding” and “binds”, respectively.

For the origin of these results see PMC12019163.
